According to patent US8518995B2, “Methods and compositions for the treatment of irritable bowel syndrome” (MediciNova, Inc., priority 2010, dated 2013):
For at least one compound, name, drawing or mass did not settle the structure.

What was measured:
[1] = system: subjects with the irritable bowel syndrome (IBS); experiment: Effects of MN-221 on rectosigmoid motility (intraluminal pressure, systemic effects, plasma levels) in IBS subjects; format: in vivo, human
Text: In this study, subjects with the irritable bowel syndrome (IBS) are studied with regard to the effects of MN-221 on rectosigmoid motility.
Men and women aged 24-52 years are included in the study. The diagnosis of IBS is made on the basis of the following criteria: 1) symptoms lasting more than few months; 2) abdominal pain with or without relation to meals; 3) constipation or a combination of diarrhea and constipation; 4) normal colonic barium enema and sigmoidoscopy; 5) negative test for lactose intolerance; and 6) negative finding on stool culture.
The subjects are all symptomatic at the time of the study. The subjects are taking no medications of significant importance for intestinal motility. Informed consent is obtained from each subject.
After a 12 hours fast, all subjects undergo sigmoidoscopy without air insufflations. […]
Intra-luminal pressure is measured from the proximal rectal balloon and the sigmoid catheter (inside diameter, about 1.67 millimeter (mm)), which is open tipped with a side orifice of about 1.5 mm diameter.
The catheter is continuously perfused with body-temperature water at 3.5 mL/h by means of an infusion pump. Pressure is transmitted to transducers (e.g., Statham P 23 Db, Statham Instruments, Hato Ray, Puerto Rico) and recorded on a Grass RPS 7C polygraph (e.g., Grass Instrument Co., Quincy, Mass.). To determine motility, the area under the pressure curves is continuously determined by integrators (such as, e.g., Grass 7P 10). […]
Motility index is expressed as kPa×min (1 kPa×min=7.5 mm Hg×min). […] After an initial rest period of 30 minutes (min), pressure is quantified for three periods of 25 min. […]
The blood pressure and heart rate are measured by a sphygmomanometer 10 and 25 min after the end of each drug infusion. […]
Results are expressed as the mean±SEM. […]
The plasma concentration of MN-221 is determined by liquid chromatography and mass spectrometry.

[2] = system: subjects suffering from IBS; experiment: Effects of MN-221 on human esophageal peristalsis (manometry, heart rate, finger tremor) in IBS subjects; format: in vivo
Text: This study investigates the inhibitory influence of beta-2-adrenergic stimulation by MN-221 on esophageal motility with little to no incidence of significant adverse side effects. In the study, esophageal peristalsis is studied in subjects suffering from IBS. The subjects have no history of gastrointestinal or cardiovascular disease. Subjects are considered to have the irritable bowel syndrome if they have an abdominal pain with or without diarrhea or constipation. Relief of pain by defecation, abdominal distension, a feeling of incomplete evacuation, and/or a response to a high-residue diet are taken as useful additional symptoms. […] The symptoms of the subjects, including dysphagia and heartburn, are recorded on data sheets for correlation with manometric findings.
Each subject is orally given MN-221, 5 mg three times daily, for 10 days. […] At each session esophageal peristaltic pressure, heart rate, and finger tremor are assessed.
Manometric studies are performed with a triple-lumen tube with each channel perfused with water, 0.5 ml/min, via a low-compliance capillary system. […] Thus, pressure is recorded about 18 cm proximal to the LES (proximal esophagus), about 10 cm proximal to the LES (middle esophagus), and about 2 cm proximal to the LES (distal esophagus). […]
At each session, heart rate is recorded in the resting subject and calculated as a mean value for 2 min. […]

[3] = system: patient with symptoms associated with IBS; experiment: Treatment of irritable bowel syndrome patient with MN-221 tablets; format: in vivo, human; settings: tablets 5 mg, three times per day, at least two months; person
[4] = system: OA-sensitized Sprague-Dawley rats; experiment: Ovalbumin-induced bladder contractions in rat model of inflammation-induced bladder hyperactivity (cystometry); format: in vivo
[5] = oral 10, 30, 50 mg/kg, 60 minutes prior to OA challenge

CN(C)C(=O)COc1ccc2c(c1)CC(NCC(O)c1ccc(O)c(CCO)c1)CC2 (single isomer, unassigned; (-)) [MN-221]
decrease of mean sigmoid motility index compared with the control period ([1]; 0.50 mg MN-221 intravenously, IBS subjects): more than 50% | rectal motility (proximal rectal balloon) ([1]; after infusion of MN-221, IBS subjects): not changed | sigmoid motility index ([1]; total dose of 1.0 mg intravenously, IBS subjects): decreases further | esophageal peristaltic pressure one week later ([2]; 1 week after withdrawal of the drug): still a trend towards decreased peristaltic pressure | esophageal peristaltic pressure ([2]; oral 5 mg three times daily for 10 days, proximal, middle and/or distal esophagus): significant decrease | IBS symptoms reported by patient [3]: positive effects, including a reduction in the symptoms | voiding frequency versus control group ([4]; oral 10, 30, 50 mg/kg): No significant differences | OA-induced changes in inter-contractile interval (ICI) [4, 5]: dose-dependent inhibition | OA-induced changes in non-voiding contractions (NVC) [4, 5]: dose-dependent inhibition | protection against OA-induced changes (increase in NVC, decrease in ICI) ([4]; pre-treatment): significant protection
